{"source": "PubChem BioAssay AID1159578, Peter MacCallum Cancer Centre, 2015", "aim": "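siRNA pools altering how lymphatic endothelial cells close a scratch wound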 (primary screen)", "system": "human lymphatic endothelial cells", "reagent": "siRNA pool against human genes, 40 nM", "time to read-out": "48 h after transfection", "detection": "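High-content imaging of dye-stained cells in a scratch assay measures filled wound area and nuclei per well; duplicate means given as ratio to mock and robust z-score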", "reading the numbers": "migration robust z-score: higher = faster migration into the scratch; nuclei per well: higher = more cells in the well", "rule for the call": "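Migration changed when robust z exceeds 2 or falls below -2 and mean nuclei number is at least 3300; otherwise not called changed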", "calls": "active = migration changed; inactive = no migration change, or too few cells", "note": "In all, the deposit lists about 18,000 reagents; below is an unselected part. About 1,030 of them (5.7%) count as active. 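Inactive calls also include pools with fewer than 3300 nuclei, whose migration was not assessed.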 Raw values are not corrected between plates. Further read-outs or replicates are left out here."}
{"gene": "CCDC43 (coiled-coil domain containing 43)", "migration robust z-score": -0.46, "migration class with cell-count check": "migration z between -2 and 2; enough cells", "nuclei per well, duplicate mean": 6352, "activity call": "inactive"}
{"gene": "FAM27E5 (family with sequence similarity E5)", "migration robust z-score": 0.84, "migration class with cell-count check": "migration z between -2 and 2; enough cells", "nuclei per well, duplicate mean": 6320, "activity call": "inactive"}
{"gene": "HEATR3 (HEAT repeat containing 3)", "migration robust z-score": 1.6, "migration class with cell-count check": "migration z between -2 and 2; enough cells", "nuclei per well, duplicate mean": 6307, "activity call": "inactive"}
{"gene": "IQCF1 (IQ motif containing F1)", "migration robust z-score": 0.69, "migration class with cell-count check": "migration z between -2 and 2; enough cells", "nuclei per well, duplicate mean": 6441, "activity call": "inactive"}
{"gene": "OR2AG1 (olfactory receptor family 2 subfamily AG member 1)", "migration robust z-score": -0.6, "migration class with cell-count check": "migration z between -2 and 2; enough cells", "nuclei per well, duplicate mean": 5795, "activity call": "inactive"}
{"gene": "EDARADD (EDAR associated via death domain)", "migration robust z-score": 0.77, "migration class with cell-count check": "migration z between -2 and 2; enough cells", "nuclei per well, duplicate mean": 5312, "activity call": "inactive"}
{"gene": "EXOC3L2 (exocyst complex component 3 like 2)", "migration robust z-score": -2.26, "migration class with cell-count check": "migration z below -2; enough cells", "nuclei per well, duplicate mean": 5344, "activity call": "active"}
{"gene": "PC (pyruvate carboxylase)", "migration robust z-score": 0.18, "migration class with cell-count check": "migration z between -2 and 2; enough cells", "nuclei per well, duplicate mean": 5197, "activity call": "inactive"}
{"gene": "GDF9 (growth differentiation factor 9)", "migration robust z-score": 0, "migration class with cell-count check": "migration z between -2 and 2; enough cells", "nuclei per well, duplicate mean": 5234, "activity call": "inactive"}
{"gene": "OR6N2 (olfactory receptor family 6 subfamily N member 2)", "migration robust z-score": -2.16, "migration class with cell-count check": "migration z below -2; enough cells", "nuclei per well, duplicate mean": 5152, "activity call": "active"}
{"gene": "ST3GAL6 (ST3 beta-galactoside alpha-2,3-sialyltransferase 6)", "migration robust z-score": -0.91, "migration class with cell-count check": "migration z between -2 and 2; enough cells", "nuclei per well, duplicate mean": 5545, "activity call": "inactive"}
{"gene": "PLIN2 (perilipin 2)", "migration robust z-score": -1.07, "migration class with cell-count check": "migration z between -2 and 2; enough cells", "nuclei per well, duplicate mean": 5888, "activity call": "inactive"}

In a second layout: results already given.
| gene | migration robust z-score | migration class with cell-count check | nuclei per well, duplicate mean | activity call |
| --- | --- | --- | --- | --- |
| ST3GAL6 (ST3 beta-galactoside alpha-2,3-sialyltransferase 6) | -0.91 | migration z between -2 and 2; enough cells | 5545 | inactive |
| PLIN2 (perilipin 2) | -1.07 | migration z between -2 and 2; enough cells | 5888 | inactive |

The list goes on.
{"gene": "PGAM4 (phosphoglycerate mutase family member 4)", "migration robust z-score": 0.29, "migration class with cell-count check": "migration z between -2 and 2; enough cells", "nuclei per well, duplicate mean": 5798, "activity call": "inactive"}
{"gene": "ZNF195 (zinc finger protein 195)", "migration robust z-score": 0.38, "migration class with cell-count check": "migration z between -2 and 2; enough cells", "nuclei per well, duplicate mean": 8112, "activity call": "inactive"}
{"gene": "HDGFL3 (HDGF like 3)", "migration robust z-score": -0.15, "migration class with cell-count check": "migration z between -2 and 2; enough cells", "nuclei per well, duplicate mean": 4522, "activity call": "inactive"}
{"gene": "DAXX (death domain associated protein)", "migration robust z-score": 0.16, "migration class with cell-count check": "migration z between -2 and 2; enough cells", "nuclei per well, duplicate mean": 6344, "activity call": "inactive"}
{"gene": "CATIP (ciliogenesis associated TTC17 interacting protein)", "migration robust z-score": -1.6, "migration class with cell-count check": "migration z between -2 and 2; enough cells", "nuclei per well, duplicate mean": 5102, "activity call": "inactive"}
{"gene": "PARP9 (poly(ADP-ribose) polymerase family member 9)", "migration robust z-score": -0.75, "migration class with cell-count check": "migration z between -2 and 2; enough cells", "nuclei per well, duplicate mean": 5476, "activity call": "inactive"}
{"gene": "SPINT2 (serine peptidase inhibitor, Kunitz type 2)", "migration robust z-score": 0.24, "migration class with cell-count check": "migration z between -2 and 2; enough cells", "nuclei per well, duplicate mean": 7826, "activity call": "inactive"}
{"gene": "SIVA1 (SIVA1 apoptosis inducing factor)", "migration robust z-score": 0.42, "migration class with cell-count check": "migration z between -2 and 2; enough cells", "nuclei per well, duplicate mean": 4541, "activity call": "inactive"}
{"gene": "HEYL", "migration robust z-score": 0.34, "migration class with cell-count check": "migration z between -2 and 2; enough cells", "nuclei per well, duplicate mean": 6552, "activity call": "inactive"}
